Measurements as given in paper PMC12040169 (PLOS Biology, 2025).
This is one part of the list.

The molecules below were run on T1, CTL2-GFP (C. trachomatis L2/434/Bu, GFP-expressing). Conditions: bulk GFP, single well; 28.5 h, 10 µM; inhibitor.
T1 construct: L2/434/Bu, GFP-expressing
Design: species or system HeLa; Intracellular C. trachomatis growth in HeLa cells, bulk GFP fluorescence relative to DMSO

SMILES	% of control remaining [%]
CCCCSc1nnc2nc(C)cc(C)n12 [CBK027588]	110.319
Nc1ccccc1Sc1ccccn1 [CBK085854]	91.7178
CS(=O)(=O)N(CC(=O)NC1CCCCCCC1)c1ccccc1 [CBK270112]	120.609
CN(C)CCNc1nc(-c2ccc(Cl)cc2)nc2ccccc12 [CBK263942]	14.5377
Cc1ccccc1C(=O)Nc1ccc(S(=O)(=O)Nc2nccs2)cc1 [CBK086797]	117.143
COc1ccccc1NC(=O)CCCC(=O)O [CBK261323]	100.647
CCCCC1C(=O)N(C)CCN1C(=O)NCc1cn2ccc(C)cc2n1 (stereo not drawn) [CBK306648]	119.429
COc1ccccc1-c1nccnc1N[C@@H](CO)C(C)C [CBK089034]	200.755
COc1cccc(C(=O)NCCC(=O)N2CCOCC2)c1 [CBK304639]	107.183
CC1CN(C(C)N2CC(C)OC2=O)C(=O)O1 (stereo not drawn) [CBK022981]	151.951
O=C(Cc1ccc(F)cc1)N1CCCC(c2cc3ncccc3[nH]2)C1 (stereo not drawn) [CBK283414]	88.1752
CS(=O)(=O)N(CC(=O)Nc1ccc(C(F)(F)F)cc1)Cc1ccc(Cl)cc1 [CBK268915]	86.6181
COc1cc(-c2cn3ccnc3c(NCC3CCOCC3)n2)cc(OC)c1OC [CBK037284]	154.593
O=[N+]([O-])c1ccc(O)c(/C=N/c2ccc(Oc3ccc(/N=C/c4cc([N+](=O)[O-])ccc4O)cc3)cc2)c1 [CBK261093]	100
CC(C)c1ccc(COc2nccnc2OC2CCN(CCCC#N)CC2)cc1 [CBK161576]	137.862
COc1ccc(C(=O)N[C@@H]2CN(Cc3ccc(CO)o3)CCC[C@H]2O)cc1 [CBK289067]	131.976
COc1nccnc1N1CCN(Cc2cccnc2)CC1 [CBK084213]	110.298
CNS(=O)(=O)c1cccc(C(C)NC(=O)N2CCSCC2)c1 (stereo not drawn) [CBK305825]	118.247
N#Cc1ccc(N2C(=O)c3ccccc3S2(=O)=O)cc1 [CBK113195]	112.374
CCN(CC)Cc1ccc2[nH]c(=O)c(CNCc3ccc(OC)cc3)cc2c1 [CBK132113]	135.848
O=C(Cc1cccc2ccccc12)Nc1ccc(Br)cc1C(=O)O [CBK268286]	120.69
CC1CCN(S(=O)(=O)N2CCCC2c2cccc(F)c2)CC1 (stereo not drawn) [CBK281957]	111.73
Cn1cc(CC(=O)N2CCN(c3ccccc3)CC2)c2ccccc21 [CBK200168]	108.947
C1CN=C(SCCCSC2=NCCCN2)NC1 [CBK278210B]	122.699
Cc1ccc(NC(=O)Cn2cnc3c2c(=O)n(C)c(=O)n3C)nc1 [CBK133463]	128.58
COC(=O)C1CCN(S(=O)(=O)c2ccccc2[N+](=O)[O-])CC1 [CBK264393]	85.783

By substructure, the compounds so far containing a Cl atom.
SMILES	% of control remaining [%]
CN(C)CCNc1nc(-c2ccc(Cl)cc2)nc2ccccc12 [CBK263942]	14.5377
CS(=O)(=O)N(CC(=O)Nc1ccc(C(F)(F)F)cc1)Cc1ccc(Cl)cc1 [CBK268915]	86.6181

Further entries:

SMILES	% of control remaining [%]
Cc1nc2ccccc2c2c1C(=O)N(c1cccc(C(=O)OCC(=O)c3ccccc3Cl)c1)C2=O [CBK265505]	100
COc1ccc(NC(=O)CSc2nsc(SCC(=O)Nc3ccc(OC)cc3)n2)cc1 [CBK008918]	116.239
Cc1ccc(OCc2occc2C(=O)N2CCCCC(N)C2)cc1 (stereo not drawn) [CBK306840]	141.869
COc1cccc(CCN2CCC(C(=O)NC(c3ccc(F)cc3)c3nc(OC)cc(OC)n3)CC2)c1 (stereo not drawn) [CBK148089]	132.417
N#CCCN(CC1CCCO1)S(=O)(=O)c1ccc(OC(F)(F)F)cc1 (stereo not drawn) [CBK044405]	124.897
Cn1c(NC(=O)COc2ccccc2)nc2ccccc21 [CBK269783]	90.8526
Cc1c(C(=O)N(C)Cc2nc3ccccc3s2)nnn1C1CCNCC1 [CBK306501C]	117.977
O=C(O)c1cccc(/N=C/c2ccc(/C=N/c3cccc(C(=O)O)c3)cc2)c1 [CBK261088]	114.212
O=C(O)CSc1ccccc1[N+](=O)[O-] [CBK111324]	108.41
COc1ccc(-c2nc(NC(=O)Cc3ccc(N(C)C)cc3)cnc2-c2ccc(F)cc2)cn1 [CBK037582]	117.227
CCOC(=O)c1[nH]c2ccccc2c1NC(=O)CN1C(=O)CSC1=O [CBK160163]	85.2275
CCOC(=O)c1c(NC(=S)NCc2ccccn2)sc2c1CCCCC2 [CBK266954]	138.52
O=C(Nc1cccc(Cl)c1Cl)c1cnc2n(c1=O)CCS2 [CBK287380]	112.231
CC(=O)c1ccc(-c2nccnc2N(C)Cc2ccccc2)s1 [CBK037504]	165.261
O=C1NCCNC(=O)C2(C/C=C/COc3ccccc31)CCCNC2 (stereo not drawn) [CBK292171]	111.179
O=C1COc2ccccc2C/C=C/CC2(CCN(CC3CCOCC3)CC2)CN1 [CBK292128]	128.213
OC(CN1CCC(O)(c2ccc(F)cc2)CC1)c1ccc(Cl)cc1 (stereo not drawn) [CBK283311]	117.601
Nc1ncnc(NCCc2c[nH]c3ccccc23)c1[N+](=O)[O-] [CBK267283]	126.134
CCCCC(=O)NC1CCN(C(=O)c2cccc(C#N)c2)CC1 [CBK306309]	101.179
CCOc1cc(NC2CCN(C(=O)C(C)(C)C3CCCC3)CC2)ncn1 [CBK304430]	92.1176
CC(=O)Nc1cccc(-c2ccc(N3CCN(CCN(C)C)CC3)nc2)c1 [CBK036857]	198.667
CCCCOC(=O)CCc1nc2ccccc2nc1O [CBK264523]	100
CCOCCCNC(=O)c1ccc(-c2cc(Oc3ccc(OC)cc3)ncn2)cc1 [CBK291209]	93.0181
C1=Nn2c(nnc2-c2ccncc2)SC(c2ccccc2)=C1 [CBK288535]	122.34
Cc1ccc(S(=O)(=O)N2CCC(C(=O)NC3(C(=O)O)CCCCC3)CC2)cc1 [CBK295644]	140.036
